# The supplement of paper PMC4604168 (melanoma cell lines)
# The list shows a part of the results. Single values are uncertain, as repeats are few or missing.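 Cells were imaged in 1,536-well plates, and nuclei stained with an antibody against cleaved PARP were counted against all DNA-stained nuclei to give the apoptosis fraction. Screening doses were chosen to leave most cells alive, and resting and induced cleaved-PARP levels differ strongly between cell lines.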
# Key:
# Experiment in all cases: cleaved PARP positive nuclei fraction relative to DMSO control; melanoma cells; higher = more apoptosis
# Details in all cases: library dose: low library concentration; 72 h
# MZ2-MEL = system: MZ2-MEL
# MeWo = system: MeWo
# RPMI7951 = system: RPMI7951
# RVH-421 = system: RVH-421
# SkMel28 = system: SkMel28
# SkMel2 = system: SkMel2
# SkMel30 = system: SkMel30
# UACC62 = system: UACC62
# WM115 = system: WM115
# WM1716 = system: WM1716
# WM1745 = system: WM1745
# WM3526 = system: WM3526
# WM3619 = system: WM3619
# WM451Lu = system: WM451Lu
SMILES,cleaved PARP positive nuclei fraction (MZ2-MEL),cleaved PARP positive nuclei fraction (MeWo),cleaved PARP positive nuclei fraction (RPMI7951),cleaved PARP positive nuclei fraction (RVH-421),cleaved PARP positive nuclei fraction (SkMel28),cleaved PARP positive nuclei fraction (SkMel2),cleaved PARP positive nuclei fraction (SkMel30),cleaved PARP positive nuclei fraction (UACC62),cleaved PARP positive nuclei fraction (WM115),cleaved PARP positive nuclei fraction (WM1716),cleaved PARP positive nuclei fraction (WM1745),cleaved PARP positive nuclei fraction (WM3526),cleaved PARP positive nuclei fraction (WM3619),cleaved PARP positive nuclei fraction (WM451Lu)
"CC(C)C[C@H](NC(=O)[C@H](Cc1ccccc1)NC(=O)c1cnccn1)B(O)O [Bortezomib] + CN1CCN(c2ccc3nc(-c4c(N)c5c(F)cccc5[nH]c4=O)[nH]c3c2)CC1 [Dovitinib] (first compound 0.001 µM, partner dose 0.1 µM)",692%,113%,127%,199%,170%,79.2%,145%,231%,144%,946%,156%,83.5%,874%,156%
"O=C(O)[C@@H]1[O][Sb](=[O])([O][Sb]2(=[O])[O][C@H]([C@H](O)CO)[C@H](O)[C@H](C(=O)O)[O]2)[O][C@H]([C@H](O)CO)[C@@H]1O (stereo partly specified) [stibogluconate] + COCC[n+]1c2c(n(Cc3cnccn3)c1C)C(=O)c1ccccc1C2=O [YM155] (first compound 2 µM, partner dose 0.0004 µM)",159%,71.5%,57.8%,108%,48.5%,108%,82.9%,33.4%,90.8%,232%,91.8%,125%,88%,25.4%
"CCCS(=O)(=O)Nc1ccc(F)c(C(=O)c2c[nH]c3ncc(Cl)cc23)c1F + Cc1nc(Nc2ncc(C(=O)Nc3c(C)cccc3Cl)s2)cc(N2CCN(CCO)CC2)n1 [dasatanib] (first compound 0.08 µM, partner dose 0.004 µM)",156%,31.9%,169%,150%,52.3%,117%,76.6%,225%,208%,51.3%,136%,72.4%,111%,121%
"CN1CCN(c2ccc3nc(-c4c(N)c5c(F)cccc5[nH]c4=O)[nH]c3c2)CC1 [Dovitinib] + Nc1cccc2c1CN(C1CCC(=O)NC1=O)C2=O [lenalidomide] (first compound 0.1 µM, partner dose 1 µM)",42.8%,110%,89.9%,83.1%,49.3%,66.5%,212%,72.1%,133%,136%,123%,89.2%,91.8%,51.9%
"Cn1c(=O)n(-c2ccc(C(C)(C)C#N)cc2)c2c3cc(-c4cnc5ccccc5c4)ccc3ncc21 + Nc1nc(F)nc2c1ncn2[C@@H]1O[C@H](CO)[C@@H](O)[C@@H]1O [fludarabine] (first compound 0.004 µM, partner dose 0.2 µM)",96.7%,579%,95.9%,52.6%,95.4%,802%,1590%,160%,155%,82.3%,96.8%,226%,110%,68.1%
"CNC(=O)c1cc(Oc2ccc(NC(=O)Nc3ccc(Cl)c(C(F)(F)F)c3)cc2)ccn1 [sorafenib] + C[C@]1(c2nc3c(C(N)=O)cccc3[nH]2)CCCN1 [Veliparib] (first compound 0.4 µM, partner dose 1.4 µM)",61.9%,34.5%,124%,211%,85.7%,83.9%,103%,145%,143%,75.2%,93.3%,148%,76.8%,80.5%
"C=C(c1ccc(C(=O)O)cc1)c1cc2c(cc1C)C(C)(C)CCC2(C)C [Bexarotene] + CC(=O)c1c(C)c2cnc(Nc3ccc(N4CCNCC4)cn3)nc2n(C2CCCC2)c1=O [palbociclib] (first compound 2 µM, partner dose 0.04 µM)",130%,23%,63.6%,129%,85.8%,99.3%,176%,45.7%,88.4%,184%,121%,141%,109%,98.8%
"Cc1cc(Nc2cc(N3CCN(C)CC3)nc(/C=C/c3ccccc3)n2)n[nH]1 + COc1ccc(Cl)c(Nc2nc3ccccc3nc2NS(=O)(=O)c2cccc(NC(=O)C(C)(C)N)c2)c1 [XL147] (first compound 0.04 µM, partner dose 0.8 µM)",156%,68.2%,189%,50.1%,83.9%,104%,33.2%,102%,235%,46%,113%,159%,92.4%,47.8%
"CNC(=O)c1cc(Oc2ccc(NC(=O)Nc3ccc(Cl)c(C(F)(F)F)c3)cc2)ccn1 [sorafenib] + COc1ccc(Cl)c(Nc2nc3ccccc3nc2NS(=O)(=O)c2cccc(NC(=O)C(C)(C)N)c2)c1 [XL147] (first compound 0.4 µM, partner dose 0.8 µM)",57.8%,89.1%,128%,273%,73.7%,115%,88.5%,76.9%,85.3%,64.2%,228%,83.7%,119%,45.7%
